Measured values from publication PMC10415183.
No constants are given. Whether binding was seen depends on the method and setting. In cells and extracts the contact can be indirect. Some binding calls cover weakened binding; strength is not graded here. Where a sequence is shown, tags or fusion partners need not be part of it.

The chains behind the UniProt entries cited, without tags or fusion partners. Residues count along the entry.
UniProt Q9BXW4, residues 1-126: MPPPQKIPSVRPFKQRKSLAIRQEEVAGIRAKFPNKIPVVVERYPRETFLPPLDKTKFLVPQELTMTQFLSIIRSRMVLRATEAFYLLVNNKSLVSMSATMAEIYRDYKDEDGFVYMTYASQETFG

Molecular target: 3xFLAG-LC3C (UniProt Q9BXW4)
Test: co-IP; HEK293T cells co-expressing HA-spartin and 3xFLAG–ATG8 proteins; anti-FLAG M2 affinity gel, 2 h at 4 °C; 50 mM Tris pH 8, 150 mM NaCl, 1 mM EDTA, 1% Triton X-100; blot with anti-HA and anti-FLAG

B1: HA-spartin (protein, UniProt Q8N0X7 1-666)
chain: MEQEPQNGEPAEIKIIREAYKKAFLFVNKGLNTDELGQKEEAKNYYKQGIGHLLRGISISSKESEHTGPGWESARQMQQKMKETLQNVRTRLEILEKGLATSLQNDLQEVPKLYPEFPPKDMCEKLPEPQSFSSAPQHAEVNGNTSTPSAGAVAAPASLSLPSQSCPAEAPPAYTPQAAEGHYTVSYGTDSGEFSSVGEEFYRNHSQPPPLETLGLDADELILIPNGVQIFFVNPAGEVSAPSYPGYLRIVRFLDNSLDTVLNRPPGFLQVCDWLYPLVPDRSPVLKCTAGAYMFPDTMLQAAGCFVGVVLSSELPEDDRELFEDLLRQMSDLRLQANWNRAEEENEFQIPGRTRPSSDQLKEASGTDVKQLDQGNKDVRHKGKRGKRAKDTSSEEVNLSHIVPCEPVPEEKPKELPEWSEKVAHNILSGASWVSWGLVKGAEITGKAIQKGASKLRERIQPEEKPVEVSPAVTKGLYIAKQATGGAAKVSQFLVDGVCTVANCVGKELAPHVKKHGSKLVPESLKKDKDGKSPLDGAMVVAASSVQGFSTVWQGLECAAKCIVNNVSAETVQTVRYKYGYNAGEATHHAVDSAVNVGVTAYNINNIGIKAMVKKTATQTGHTLLEDYQIVDNSQRENQEGAANVNVRGEKDEQTKEVKEAKKKDK
  binding: binds
